Reference: PubChem BioAssay AID1508597 (Cure First, 2020)
Screen: 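Survival screen with siRNA in ovarian cancer cells derived from patients, with or without rucaparib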 (primary screen). System: human ovarian carcinoma lines grown from tumours: OCI-P5x (papillary serous) and OCI-C5x (clear cell). Knock-down reagent: siRNA pool against human genes, 1.25 pmol siRNA per well. Time to read-out: 72 h or 96 h, depending on the cell culture. Conditions: rucaparib 20 µM (about IC30) or vehicle, present until read-out. Rucaparib or vehicle: Vehicle. Cell line: OCI-P5x (serous). Measured: 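ATP luminescence measured at 72 or 96 h according to the culture, then normalised and expressed as percent viability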. Scale: viability, normalised: higher = more viable cells remaining. Call rule: 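Active when normalised viability falls below 80 percent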. Calls: active = viability under 80%; inactive = viability 80% or more.
Shown is a random part of the about 2,100 reagents, in one setting of the screen. 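Calls flag viability under 80% in either arm, not effects specific to rucaparib; the reference for percent is not stated.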 Unmarked entries are inactive. Not stated in the record: the 100% reference.

target,PubChem SID,technical replicate,"viability, normalised (%)"
PDE6D (GeneID 5147),SID405526697,1,74.9 (active)
PDE6D (GeneID 5147),SID405526697,2,79.2 (active)
PDE6D (GeneID 5147),SID405526697,3,80.7
SYK (GeneID 6850),SID405527373,1,86
SYK (GeneID 6850),SID405527373,2,93
SYK (GeneID 6850),SID405527373,3,79.1 (active)
NOTCH3 (GeneID 4854),SID405526325,1,67.8 (active)
NOTCH3 (GeneID 4854),SID405526325,2,72.1 (active)
NOTCH3 (GeneID 4854),SID405526325,3,82
INO80 (GeneID 54617),SID405526901,1,60.6 (active)
INO80 (GeneID 54617),SID405526901,2,57.1 (active)
INO80 (GeneID 54617),SID405526901,3,79.4 (active)
NRXN2 (GeneID 9379),SID405527093,1,58.5 (active)
NRXN2 (GeneID 9379),SID405527093,2,53.2 (active)
NRXN2 (GeneID 9379),SID405527093,3,124
CTBP1-DT (GeneID 92070),SID405526446,1,89.2
CTBP1-DT (GeneID 92070),SID405526446,2,87.7
CTBP1-DT (GeneID 92070),SID405526446,3,86.1
MAP2K6 (GeneID 5608),SID405527442,1,105
MAP2K6 (GeneID 5608),SID405527442,2,95.5
MAP2K6 (GeneID 5608),SID405527442,3,95.1
IRAK1 (GeneID 3654),SID405527784,1,71.5 (active)
IRAK1 (GeneID 3654),SID405527784,2,66.4 (active)
IRAK1 (GeneID 3654),SID405527784,3,56.1 (active)
MAP3K11 (GeneID 4296),SID405527867,1,113
MAP3K11 (GeneID 4296),SID405527867,2,101
MAP3K11 (GeneID 4296),SID405527867,3,95.3
KLF6 (GeneID 1316),SID405526946,1,58.7 (active)
KLF6 (GeneID 1316),SID405526946,2,85
KLF6 (GeneID 1316),SID405526946,3,80.6
PEA15 (GeneID 8682),SID405527133,1,62.8 (active)
PEA15 (GeneID 8682),SID405527133,2,78 (active)
PEA15 (GeneID 8682),SID405527133,3,87.5
ULK4 (GeneID 54986),SID405527692,1,71.2 (active)
ULK4 (GeneID 54986),SID405527692,2,63.3 (active)
ULK4 (GeneID 54986),SID405527692,3,72.7 (active)
EPHB1 (GeneID 2047),SID405527495,1,89.6
EPHB1 (GeneID 2047),SID405527495,2,94.5
EPHB1 (GeneID 2047),SID405527495,3,118

Reformatted: entries from further up.
{"target":"KLF6 (GeneID 1316)","PubChem SID":"SID405526946","technical replicate":"2","viability, normalised (%)":85}
{"target":"KLF6 (GeneID 1316)","PubChem SID":"SID405526946","technical replicate":"3","viability, normalised (%)":80.6}
{"target":"PEA15 (GeneID 8682)","PubChem SID":"SID405527133","technical replicate":"1","viability, normalised (%)":"62.8 (active)"}
{"target":"PEA15 (GeneID 8682)","PubChem SID":"SID405527133","technical replicate":"2","viability, normalised (%)":"78 (active)"}
{"target":"PEA15 (GeneID 8682)","PubChem SID":"SID405527133","technical replicate":"3","viability, normalised (%)":87.5}
